# The other results are listed elsewhere or left out. Shown are side measurements of this screen, not its main read-out; they come without a call. Most of these compounds were active or inconclusive in the main read-out, so they are no random draw. The note in brackets gives the kind of curve behind each potency; many fits are weak.
# Assay: IkB Signaling
# Conditions: ABC-DLBCL IkBa-CBG/CBR dual luciferase ratio (green luciferase fused to IkBa over red control in OCI-Ly3 lymphoma cells), 4 h
# Outline: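 Curves were fitted separately to fusion (green), unfused (red) and ratio luminescence, then classed by r2, magnitude and activity. Cells: OCI-Ly3, 4 h compound plus doxycycline at 37C; 10 uM MG-132 defined full response.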
# [1] = measured here: control luc red channel unless noted
# [2] = measured here: IkB-luc green channel
# [3] = measured here: control luc red channel
smiles,measurement,setting,value
CCCCNC(=O)CCc1c(C)nc2c(c(C)nn2-c2ccccc2)c1C,AC50,[1],"20 µM [falling, single point]"
Cc1cc(C(=O)CSc2nnc(Cc3ccccc3)o2)c(C)n1Cc1ccc2c(c1)OCO2,AC50,[1],"12.6 µM [falling, partial curve]"
O=C(Nc1ccccc1)C1=C(N2CCOCC2)/C(=C/c2cccnc2)CC1,AC50,[1],"39.8 µM [falling, single point]"
COc1cccc(OCc2nc3ccccc3n2CCOc2cccc(C)c2)c1,AC50,[1],"20 µM [falling, partial curve]"
Cc1cccc(CS(=O)(=O)c2ncc(Cl)c(C(=O)NCc3ccccc3)n2)c1,AC50,[1],"3.16 µM [falling, full curve]"
Cn1c(=O)c2c(nc(SCC(=O)Nc3ccc(F)cc3)n2Cc2ccccc2)n(C)c1=O,AC50,[1],"15.8 µM [falling, partial curve]"
COc1ccc(NS(=O)(=O)c2ccc3[nH]c4c(c3c2)CCCCCC4)cc1,AC50,[1],"20 µM [falling, partial curve]"
Cc1ccccc1CS(=O)(=O)Cc1ccc(C(=O)NCc2ccc(F)cc2)o1,AC50,[1],"3.16 µM [rising, single point]"
CCCCn1c(CN(C)Cc2ccccc2)nc2c1c(=O)n(C)c(=O)n2C,AC50,[1],"12.6 µM [falling, partial curve]"
Cc1ccc(-c2csc(N(CC3CCCO3)C(=O)c3ccco3)n2)cc1 (centres undefined),AC50,[1],"31.6 µM [falling, partial curve]"
CC(C)C(=O)OCc1cc(=O)n2nc(C3CCCCC3)sc2n1,AC50,[1],"12.6 µM [falling, partial curve]"
COCCNc1ncnc2c1c(-c1ccccc1)cn2-c1cccc(Cl)c1,AC50,[1],"39.8 µM [falling, single point]"
Cc1cnc(C)c(N2CCC(C(=O)NCc3ccco3)CC2)n1,AC50,[1],"2.51 µM [rising, partial curve] [measured here: IkB-luc green channel]"
Cn1c(CCNC(=O)c2ccco2)nc2cc(NC(=O)COc3ccc(Cl)cc3)ccc21,AC50,[1],"0.316 µM [falling, full curve, poor fit]"
Cc1ccc(C(=O)COC(=O)CCC(=O)Nc2ccc(Oc3ccccc3)cc2)cc1C,AC50,[1],"0.0631 µM [rising, full curve]"
O=C(Cn1nc(C(F)(F)F)c2c1CCCC2)NC1CCCC1,AC50,[1],"39.8 µM [falling, single point]"
COc1cc(NC(=O)Cn2cc(S(=O)(=O)c3ccccc3)c(=O)c3ccccc32)cc(OC)c1,AC50,[1],"25.1 µM [falling, single point]"
COc1cccc(-c2ccc3c(N)c(C(=O)Nc4ccc(C)c(F)c4)sc3n2)c1,AC50,[1],"15.8 µM [falling, partial curve]"
CCOc1cc(C2c3c(-c4ccccc4O)n[nH]c3C(=O)N2CCc2ccccc2)ccc1O (centres undefined),AC50,[1],"39.8 µM [falling, single point]"
CCCCCC(=O)Nc1cccc(-c2nc3ncccc3o2)c1,AC50,[1],"31.6 µM [falling, single point]"
CNC(=O)COc1ccc(Nc2nnc(-c3ccc(C)c(S(=O)(=O)NC(C)(C)C)c3)c3ccccc23)cc1,AC50,[1],"20 µM [falling, single point]"
COc1ccc(-c2onc(C)c2C)cc1S(=O)(=O)NC1CCC(C)CC1 (centres undefined),AC50,[1],"39.8 µM [falling, single point]"
Cc1ccc(OCC(=O)Nc2ccc(C(=O)OCc3cc(=O)n4c(C)csc4n3)cc2)cc1,AC50,[1],"3.16 µM [falling, full curve]"
O=C(Nc1ccc(F)cc1F)c1ccc(-n2cnnc2)cc1,AC50,[1],"15.8 µM [falling, partial curve]"
O=C(NCC12CC3CC(CC(C3)C1)C2)c1cc2nc(-c3ccc(F)cc3)cc(C(F)(F)F)n2n1,AC50,[1],"31.6 µM [falling, partial curve, poor fit]"
Cc1cc(-n2c(C)nc3ccccc3c2=O)ccc1NC(=O)c1cccc([N+](=O)[O-])c1,AC50,[1],"25.1 µM [falling, single point]"
Cc1cccc(NC(=O)CSc2cc(C)c3ccccc3n2)c1,AC50,[1],"39.8 µM [falling, single point]"
COc1ccc(N2CCN(C(=O)Nc3cccc(C(F)(F)F)c3)CC2)cc1,AC50,[1],"25.1 µM [falling, single point]"
Cc1ccc(-n2c(=O)c3oc4ccccc4c3n(CC(=O)Nc3ccccc3)c2=O)cc1C,AC50,[1],"31.6 µM [falling, single point]"
COc1cccc(Nc2nc(-c3ccccc3)c3cc(C)ccc3n2)c1,AC50,[1],"20 µM [falling, single point]"
Cc1ccc(NC(=O)C(Cc2ccccc2)NS(=O)(=O)c2cccc3nsnc23)c(C)c1 (centres undefined),AC50,[1],"12.6 µM [falling, partial curve]"
COc1ccc(NC(=O)CSC2=Nc3ccccc3C3=NC(CC(=O)NCc4ccc(F)cc4)C(=O)N23)cc1 (centres undefined),AC50,[1],"20 µM [falling, partial curve, poor fit]"
COc1cccc(NC(=O)/C(C#N)=C\c2cn(Cc3ccc(Cl)cc3)c3ccccc23)c1,AC50,[1],"3.98 µM [falling, full curve]"
COc1ccc(CNC(=O)Cn2c(=O)oc3cc(S(=O)(=O)N4CCCC4)ccc32)cc1,AC50,[1],"10 µM [falling, partial curve]"
O=C(O)c1cc(Cl)c2ccccc2c1O,AC50,[1],"25.1 µM [falling, single point]"
CCCCc1ccc(C(=O)N/C(=C\c2ccc(C)cc2)C(=O)NC2CCCCC2)cc1,AC50,[1],"3.16 µM [falling, full curve]"
Cc1ccc(Cl)cc1N1CCN(C(=O)c2ccc(C)c(-n3c(C)nc4cccnc43)c2)CC1,AC50,[1],"25.1 µM [falling, partial curve]"
CCc1nc2ccc(C(=O)N3CCN(c4ccc(Cl)cc4)CC3)cc2nc1CC,AC50,[1],"20 µM [falling, partial curve]"
Cc1cc(C(F)F)n2nc(C(=O)Nc3ccc(F)c(Cl)c3)nc2n1,AC50,[1],"0.398 µM [rising, partial curve]"
COc1ccc2c(C)c(CCC(=O)NCCc3ccc(Cl)cc3)c(=O)oc2c1,AC50,[1],"25.1 µM [falling, partial curve]"
CC1(C(=O)Nc2nccs2)Cc2ccccc2C(=O)O1 (centres undefined),AC50,[1],"10 µM [falling, partial curve]"
COCCCNC(=O)CCc1c(C)nc2cc(-c3ccc(Cl)cc3)nn2c1C,AC50,[1],"0.2 µM [falling, full curve]"
O=C(c1cccs1)N1CCCc2cc(NS(=O)(=O)c3ccc(F)cc3)ccc21,AC50,[1],"39.8 µM [falling, single point]"
CC(C)Cn1c(/C=C/c2ccc(F)cc2)nc2ccccc21,AC50,[1],"31.6 µM [falling, single point]"
O=C(c1ccc2c(=O)n(CCc3ccccc3)c(=O)[nH]c2c1)N1CCN(c2ccc(Cl)cc2)CC1,AC50,[1],"5.01 µM [falling, full curve]"
CCn1c(C)c(C)c2cc(C(=O)NCCc3ccc(C)cc3)ccc21,AC50,[1],"25.1 µM [falling, single point]"
Cc1nn2c(-c3cccc(NC(=O)c4ccc(Cl)cc4)c3)nnc2c2ccccc12,AC50,[2],"39.8 µM [rising, single point]"
same,AC50,[3],"39.8 µM [rising, single point]"
O=C(NCCOc1ccc(Cl)cc1)C1CC(=O)N(c2ccc(F)cc2)C1 (centres undefined),AC50,[1],"25.1 µM [falling, single point]"
Cc1cccc(N2CCN(C(=O)C3CCN(c4nnc(-n5cccc5)s4)CC3)CC2C)c1 (centres undefined),AC50,[2],"20 µM [falling, partial curve]"
same,AC50,[3],"2.51 µM [falling, full curve]"
CCS(=O)(=O)N1CCc2cc(C(=O)Nc3cc(Cl)ccc3C)ccc21,AC50,[1],"20 µM [falling, partial curve]"
CCOC(=O)c1c(C)[nH]c(CCC(=O)Nc2ccccc2C(=O)OC)c1C,AC50,[1],"39.8 µM [falling, single point]"
COc1ccc(-n2c(-c3ccco3)nc3c(cnn3-c3ccc(C)cc3)c2=O)cc1,AC50,[1],"25.1 µM [falling, single point]"
Cc1ccc(-c2ccc(=O)n(CC(=O)NCc3ccc(F)cc3)n2)cc1,AC50,[1],"12.6 µM [falling, partial curve]"
COc1ccc(-c2nc3n(n2)C(=O)CC(c2ccc(Cl)cc2)S3)cc1 (centres undefined),AC50,[1],"10 µM [falling, partial curve]"
COc1ccc2cc3cc(C(=O)NCCc4ccc(OC)c(OC)c4)oc3nc2c1,AC50,[1],"3.98 µM [falling, full curve, poor fit]"
c1ccc2c(c1)nnn2-c1ncnc2sc3c(c12)CCCC3,AC50,[1],"39.8 µM [falling, single point]"
Cc1cccc(NC(=O)CCn2nc(-c3ccccc3)c3ccccc3c2=O)c1,AC50,[1],"3.98 µM [rising, partial curve]"
COc1ccc(NC(=O)C2CCCN2S(=O)(=O)c2ccc3nc(-c4ccccc4)[nH]c3c2)cc1 (centres undefined),AC50,[1],"10 µM [falling, partial curve]"
Fc1ccc(Cn2nnnc2C(c2cccs2)N2CCCCCC2)cc1 (centres undefined),AC50,[1],"39.8 µM [falling, single point]"
CCOC(=O)c1cc(-c2ccc(C)cc2)n(CCC(=O)Nc2ccc(OC)c(OC)c2)c1C,AC50,[1],"39.8 µM [falling, partial curve, poor fit]"
CCCCCN1C(C(=O)c2ccccc2)=C(NC(=O)c2ccccc2Cl)c2ccccc2S1(=O)=O,AC50,[1],"5.01 µM [falling, partial curve]"
Nc1nc(Cl)nc2c1ncn2[C@@H]1O[C@@H](COP(=O)(O)OP(=O)(O)OP(=O)(O)O)[C@@H](O)[C@H]1O,AC50,[1],"1 µM [rising, full curve, poor fit] [measured here: IkB-luc green channel]"

# 4 consecutive entries from above:
smiles,measurement,setting,value
COc1cccc(NC(=O)/C(C#N)=C\c2cn(Cc3ccc(Cl)cc3)c3ccccc23)c1,AC50,[1],"3.98 µM [falling, full curve]"
COc1ccc(CNC(=O)Cn2c(=O)oc3cc(S(=O)(=O)N4CCCC4)ccc32)cc1,AC50,[1],"10 µM [falling, partial curve]"
O=C(O)c1cc(Cl)c2ccccc2c1O,AC50,[1],"25.1 µM [falling, single point]"
CCCCc1ccc(C(=O)N/C(=C\c2ccc(C)cc2)C(=O)NC2CCCCC2)cc1,AC50,[1],"3.16 µM [falling, full curve]"

# From PubChem BioAssay AID445 (National Center for Advancing Translational Sciences (NCATS), 2006)
